Measured values taken from the supplement of paper PMC12819154, “High-throughput peptide-centric local stability assay extends protein–ligand identification to membrane proteins, tissues and bacteria” (Nature Structural & Molecular Biology, 2025).
Some of the results follow. Most values lie at the level of the controls, where differences are scatter.

Protein sequences, listed by entry. Tags and fused reporters are not part of them. Lines headed by an entry give the natural chain unless they say otherwise; changes in a name come on top.
UniProt P13984, whole entry: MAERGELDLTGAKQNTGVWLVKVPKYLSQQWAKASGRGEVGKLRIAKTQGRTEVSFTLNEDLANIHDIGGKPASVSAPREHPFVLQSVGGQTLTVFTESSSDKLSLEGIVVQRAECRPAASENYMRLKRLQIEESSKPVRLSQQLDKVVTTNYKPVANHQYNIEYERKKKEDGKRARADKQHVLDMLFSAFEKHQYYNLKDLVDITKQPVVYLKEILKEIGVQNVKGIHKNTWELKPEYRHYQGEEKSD
UniProt P09622, whole entry: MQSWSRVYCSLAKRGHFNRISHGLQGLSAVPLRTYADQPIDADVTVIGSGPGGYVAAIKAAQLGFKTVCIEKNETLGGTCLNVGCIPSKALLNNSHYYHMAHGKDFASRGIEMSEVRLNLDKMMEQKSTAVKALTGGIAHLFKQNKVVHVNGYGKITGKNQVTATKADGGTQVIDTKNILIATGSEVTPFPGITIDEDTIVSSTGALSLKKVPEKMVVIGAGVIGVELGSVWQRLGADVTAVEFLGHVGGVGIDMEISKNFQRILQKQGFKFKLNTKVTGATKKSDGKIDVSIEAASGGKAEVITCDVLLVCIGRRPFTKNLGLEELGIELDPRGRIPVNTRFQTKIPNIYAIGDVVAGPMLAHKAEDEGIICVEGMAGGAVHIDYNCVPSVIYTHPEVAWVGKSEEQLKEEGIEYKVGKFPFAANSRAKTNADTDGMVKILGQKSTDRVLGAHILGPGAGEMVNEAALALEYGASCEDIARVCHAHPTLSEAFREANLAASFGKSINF
UniProt P11413, whole entry: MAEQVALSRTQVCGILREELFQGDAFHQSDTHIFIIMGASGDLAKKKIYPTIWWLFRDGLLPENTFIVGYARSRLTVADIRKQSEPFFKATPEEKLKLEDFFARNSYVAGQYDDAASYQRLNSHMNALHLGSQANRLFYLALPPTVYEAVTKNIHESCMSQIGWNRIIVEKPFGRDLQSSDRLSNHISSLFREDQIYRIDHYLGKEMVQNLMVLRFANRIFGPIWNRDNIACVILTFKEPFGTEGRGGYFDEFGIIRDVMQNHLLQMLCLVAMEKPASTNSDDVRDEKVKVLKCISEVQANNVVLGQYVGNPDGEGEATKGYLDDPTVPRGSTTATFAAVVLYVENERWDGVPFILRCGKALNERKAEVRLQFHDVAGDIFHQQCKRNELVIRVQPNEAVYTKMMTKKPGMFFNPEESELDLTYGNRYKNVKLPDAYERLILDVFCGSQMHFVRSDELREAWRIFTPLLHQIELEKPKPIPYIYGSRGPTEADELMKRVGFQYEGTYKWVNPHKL
UniProt P0CG47, whole entry, looked up: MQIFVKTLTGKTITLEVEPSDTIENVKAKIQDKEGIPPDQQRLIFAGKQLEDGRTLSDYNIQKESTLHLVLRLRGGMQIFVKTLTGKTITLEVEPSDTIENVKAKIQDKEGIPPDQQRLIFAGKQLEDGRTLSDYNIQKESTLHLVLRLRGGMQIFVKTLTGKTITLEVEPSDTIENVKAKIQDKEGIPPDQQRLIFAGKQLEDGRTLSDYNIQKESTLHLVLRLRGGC
UniProt P11117: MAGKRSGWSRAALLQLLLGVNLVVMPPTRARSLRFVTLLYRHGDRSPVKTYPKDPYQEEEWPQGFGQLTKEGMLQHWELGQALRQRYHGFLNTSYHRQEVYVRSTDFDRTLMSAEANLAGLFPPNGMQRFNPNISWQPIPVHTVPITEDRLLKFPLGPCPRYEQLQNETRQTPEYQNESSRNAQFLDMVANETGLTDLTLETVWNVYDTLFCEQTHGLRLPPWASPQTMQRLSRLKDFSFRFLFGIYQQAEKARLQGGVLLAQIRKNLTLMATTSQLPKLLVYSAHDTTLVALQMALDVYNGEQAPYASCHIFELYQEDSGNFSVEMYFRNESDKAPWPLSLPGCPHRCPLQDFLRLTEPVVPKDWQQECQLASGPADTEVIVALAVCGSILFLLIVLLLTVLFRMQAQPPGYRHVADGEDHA
UniProt P0C2W1: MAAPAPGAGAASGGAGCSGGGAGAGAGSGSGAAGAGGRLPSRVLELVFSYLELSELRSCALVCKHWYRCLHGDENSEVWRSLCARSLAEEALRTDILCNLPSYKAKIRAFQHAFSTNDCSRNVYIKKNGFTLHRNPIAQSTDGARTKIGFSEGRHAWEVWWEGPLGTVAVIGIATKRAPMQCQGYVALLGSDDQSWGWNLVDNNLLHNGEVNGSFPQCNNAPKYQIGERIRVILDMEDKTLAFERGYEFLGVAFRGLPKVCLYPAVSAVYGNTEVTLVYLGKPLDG
UniProt P05161, whole entry: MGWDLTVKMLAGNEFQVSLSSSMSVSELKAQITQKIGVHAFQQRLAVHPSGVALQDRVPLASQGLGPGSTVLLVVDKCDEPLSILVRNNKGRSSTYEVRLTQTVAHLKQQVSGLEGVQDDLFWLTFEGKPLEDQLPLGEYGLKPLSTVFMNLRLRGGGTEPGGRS
UniProt P07741: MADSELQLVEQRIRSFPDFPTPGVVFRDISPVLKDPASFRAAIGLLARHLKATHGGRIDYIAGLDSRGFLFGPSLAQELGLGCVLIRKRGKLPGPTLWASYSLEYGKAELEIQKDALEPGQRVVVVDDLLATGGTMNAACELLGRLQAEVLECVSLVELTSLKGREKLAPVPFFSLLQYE
UniProt P11182, whole entry: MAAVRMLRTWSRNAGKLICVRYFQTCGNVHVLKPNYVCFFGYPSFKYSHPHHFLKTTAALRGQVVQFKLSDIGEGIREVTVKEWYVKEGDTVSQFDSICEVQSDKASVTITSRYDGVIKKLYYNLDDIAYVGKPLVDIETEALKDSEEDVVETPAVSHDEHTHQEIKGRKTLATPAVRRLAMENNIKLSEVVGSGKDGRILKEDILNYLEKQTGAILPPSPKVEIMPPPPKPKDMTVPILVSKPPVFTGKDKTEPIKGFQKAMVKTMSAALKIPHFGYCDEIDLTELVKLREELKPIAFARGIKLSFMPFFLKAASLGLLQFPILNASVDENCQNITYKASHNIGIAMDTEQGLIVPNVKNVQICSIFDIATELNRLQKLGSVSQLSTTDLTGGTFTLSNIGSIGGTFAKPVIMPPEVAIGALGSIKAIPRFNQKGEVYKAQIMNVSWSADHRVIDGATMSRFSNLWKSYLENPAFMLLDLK
UniProt P04054: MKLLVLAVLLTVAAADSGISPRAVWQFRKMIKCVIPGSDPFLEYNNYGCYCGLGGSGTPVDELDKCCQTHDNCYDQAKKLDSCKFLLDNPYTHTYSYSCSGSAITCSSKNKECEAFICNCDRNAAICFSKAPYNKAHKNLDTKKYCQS
UniProt P11940, whole entry: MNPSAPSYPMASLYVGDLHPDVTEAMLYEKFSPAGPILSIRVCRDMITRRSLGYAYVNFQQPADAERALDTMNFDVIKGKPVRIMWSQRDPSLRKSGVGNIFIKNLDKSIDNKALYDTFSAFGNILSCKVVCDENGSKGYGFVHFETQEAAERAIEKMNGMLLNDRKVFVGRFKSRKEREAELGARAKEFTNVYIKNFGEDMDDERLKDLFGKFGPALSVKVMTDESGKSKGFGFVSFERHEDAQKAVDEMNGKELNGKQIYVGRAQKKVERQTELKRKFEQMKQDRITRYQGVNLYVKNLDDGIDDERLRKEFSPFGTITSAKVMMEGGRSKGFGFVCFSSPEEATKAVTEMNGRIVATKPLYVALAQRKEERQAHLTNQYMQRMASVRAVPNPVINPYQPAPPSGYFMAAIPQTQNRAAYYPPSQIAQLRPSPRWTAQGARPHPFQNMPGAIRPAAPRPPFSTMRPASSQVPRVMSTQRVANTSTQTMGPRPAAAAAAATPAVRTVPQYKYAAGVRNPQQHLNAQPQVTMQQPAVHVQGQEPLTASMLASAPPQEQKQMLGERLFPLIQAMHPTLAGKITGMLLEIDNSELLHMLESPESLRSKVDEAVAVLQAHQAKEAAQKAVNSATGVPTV
UniProt P0C7P4: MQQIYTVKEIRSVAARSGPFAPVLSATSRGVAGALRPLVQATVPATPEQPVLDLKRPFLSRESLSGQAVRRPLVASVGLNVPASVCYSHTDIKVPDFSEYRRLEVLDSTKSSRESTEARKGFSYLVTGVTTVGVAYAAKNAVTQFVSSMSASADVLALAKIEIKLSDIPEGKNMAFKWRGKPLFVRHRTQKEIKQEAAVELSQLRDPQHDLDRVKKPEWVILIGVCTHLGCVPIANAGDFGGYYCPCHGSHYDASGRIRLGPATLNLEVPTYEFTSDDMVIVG
UniProt P02724: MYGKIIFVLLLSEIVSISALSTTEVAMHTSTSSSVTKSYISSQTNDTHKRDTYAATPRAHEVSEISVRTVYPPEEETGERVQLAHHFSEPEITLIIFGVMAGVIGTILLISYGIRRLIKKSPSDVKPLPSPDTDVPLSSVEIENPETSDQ
UniProt P07199: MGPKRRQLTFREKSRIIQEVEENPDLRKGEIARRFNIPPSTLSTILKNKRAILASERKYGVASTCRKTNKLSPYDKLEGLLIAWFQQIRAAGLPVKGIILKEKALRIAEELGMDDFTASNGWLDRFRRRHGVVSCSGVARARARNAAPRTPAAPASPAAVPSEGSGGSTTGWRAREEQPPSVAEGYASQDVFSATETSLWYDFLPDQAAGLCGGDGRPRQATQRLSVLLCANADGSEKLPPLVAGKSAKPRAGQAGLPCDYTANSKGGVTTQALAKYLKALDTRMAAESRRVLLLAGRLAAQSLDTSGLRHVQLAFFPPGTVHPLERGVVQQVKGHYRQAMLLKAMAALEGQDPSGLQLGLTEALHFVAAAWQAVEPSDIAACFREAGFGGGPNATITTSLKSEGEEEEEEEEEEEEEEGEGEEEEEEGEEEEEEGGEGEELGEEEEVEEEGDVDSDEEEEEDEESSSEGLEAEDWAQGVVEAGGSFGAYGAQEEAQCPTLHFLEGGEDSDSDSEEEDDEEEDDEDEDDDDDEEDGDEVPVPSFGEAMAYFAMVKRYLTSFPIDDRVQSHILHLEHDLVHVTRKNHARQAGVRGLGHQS
UniProt P05556, whole entry: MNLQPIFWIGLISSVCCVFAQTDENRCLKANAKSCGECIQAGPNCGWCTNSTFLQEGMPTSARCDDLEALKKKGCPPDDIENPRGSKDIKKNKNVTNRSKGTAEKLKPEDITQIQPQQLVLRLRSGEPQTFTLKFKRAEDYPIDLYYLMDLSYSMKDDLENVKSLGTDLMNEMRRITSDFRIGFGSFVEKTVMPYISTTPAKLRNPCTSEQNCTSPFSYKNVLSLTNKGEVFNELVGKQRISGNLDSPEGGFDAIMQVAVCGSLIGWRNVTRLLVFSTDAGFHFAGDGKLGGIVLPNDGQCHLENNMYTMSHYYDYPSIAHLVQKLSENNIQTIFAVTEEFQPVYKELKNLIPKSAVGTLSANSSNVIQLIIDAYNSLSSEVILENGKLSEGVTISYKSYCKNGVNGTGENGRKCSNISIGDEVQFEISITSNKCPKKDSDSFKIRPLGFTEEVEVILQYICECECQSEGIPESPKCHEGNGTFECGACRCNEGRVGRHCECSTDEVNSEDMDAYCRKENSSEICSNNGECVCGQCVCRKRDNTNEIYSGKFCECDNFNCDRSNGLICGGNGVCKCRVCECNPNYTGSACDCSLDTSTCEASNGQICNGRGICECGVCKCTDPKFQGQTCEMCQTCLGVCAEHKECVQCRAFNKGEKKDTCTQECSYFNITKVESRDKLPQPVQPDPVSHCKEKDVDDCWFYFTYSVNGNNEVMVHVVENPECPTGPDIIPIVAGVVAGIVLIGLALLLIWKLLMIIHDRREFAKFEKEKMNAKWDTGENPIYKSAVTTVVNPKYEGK
UniProt P0DJ93: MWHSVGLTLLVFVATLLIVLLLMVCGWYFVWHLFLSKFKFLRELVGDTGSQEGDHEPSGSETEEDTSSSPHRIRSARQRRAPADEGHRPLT
UniProt P08567: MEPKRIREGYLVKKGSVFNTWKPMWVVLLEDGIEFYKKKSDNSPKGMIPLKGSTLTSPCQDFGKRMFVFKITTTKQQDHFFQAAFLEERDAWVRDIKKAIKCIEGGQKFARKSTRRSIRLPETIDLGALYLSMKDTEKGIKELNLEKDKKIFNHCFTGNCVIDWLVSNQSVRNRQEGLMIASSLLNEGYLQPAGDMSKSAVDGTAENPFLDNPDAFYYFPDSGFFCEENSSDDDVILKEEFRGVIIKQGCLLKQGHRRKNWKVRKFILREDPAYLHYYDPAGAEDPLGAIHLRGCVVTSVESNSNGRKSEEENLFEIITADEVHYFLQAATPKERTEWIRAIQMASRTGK
UniProt P13995: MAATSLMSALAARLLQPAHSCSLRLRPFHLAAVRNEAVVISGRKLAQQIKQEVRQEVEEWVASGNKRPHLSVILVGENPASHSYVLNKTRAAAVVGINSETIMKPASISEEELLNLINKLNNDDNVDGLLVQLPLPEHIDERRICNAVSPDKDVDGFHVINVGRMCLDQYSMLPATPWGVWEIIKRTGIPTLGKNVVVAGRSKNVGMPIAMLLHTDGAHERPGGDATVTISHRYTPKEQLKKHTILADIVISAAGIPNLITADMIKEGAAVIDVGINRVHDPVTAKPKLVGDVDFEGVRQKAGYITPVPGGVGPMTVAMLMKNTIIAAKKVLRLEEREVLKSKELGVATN
UniProt P0DPB6, whole entry: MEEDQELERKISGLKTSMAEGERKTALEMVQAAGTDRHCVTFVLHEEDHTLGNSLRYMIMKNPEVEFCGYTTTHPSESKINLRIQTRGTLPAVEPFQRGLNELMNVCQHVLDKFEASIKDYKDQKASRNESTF

Each target was assayed with Cc1nc(Nc2ncc(C(=O)Nc3c(C)cccc3Cl)s2)cc(N2CCN(CCO)CC2)n1 [dasatinib] (assay: log2 fold change of tryptic peptide abundance, ligand vs vehicle (limited proteolysis) (log2 ratio); higher = more trypsin-susceptible (destabilized)). Conditions: ligand concentration: 5 uM; sample: K562 cleared lysate.
“GTF2F2 (peptide sequence: LQIEESSKPVR, peptide start residue: 130) (UniProt P13984)” showed a log2 fold change of -0.176. With “DLD (peptide sequence: ALLNNSHYYHMAHGK, peptide start residue: 90) (UniProt P09622)” the log2 fold change was 0.092. Target “UniProt P0DME0 (peptide sequence: VEVTEFEDIK, peptide start residue: 123)” has a log2 fold change of 0.193. “G6PD (peptide sequence: TQVCGILR, peptide start residue: 10) (UniProt P11413)” showed a log2 fold change of 0.0546. Work on “UniProt P0CG47 (peptide sequence: EGIPPDQQR, peptide start residue: 34)” yielded a log2 fold change of 0.214. “RPS17 (peptide sequence: GISIKLQEEERER, peptide start residue: 68) (UniProt P08708)” was tested, and the log2 fold change was -0.308. Work on “EEF2 (peptide sequence: ARPFPDGLAEDIDKGEVSAR, peptide start residue: 606) (UniProt P13639)” yielded a log2 fold change of -0.199. Target “ACP2 (peptide sequence: HVADGEDHA, peptide start residue: 415) (UniProt P11117)” has a log2 fold change of 1.11. “CTSA (peptide sequence: SMNSQYLK, peptide start residue: 376) (UniProt P10619)” gave a log2 fold change of -0.428. Target “CKB (peptide sequence: VLTPELYAELR, peptide start residue: 33) (UniProt P12277)” has a log2 fold change of -0.122. “CTSL (peptide sequence: EKGYVTPVK, peptide start residue: 122) (UniProt P07711)” showed a log2 fold change of -0.0146. “COL3A1 (peptide sequence: GESGPAGPAGAPGPAGSR, peptide start residue: 1065) (UniProt P02461)” was tested, and the log2 fold change was 0.0584. For “FBXO45 (peptide sequence: TDILCNLPSYK, peptide start residue: 94) (UniProt P0C2W1)”, the log2 fold change was 0.126. “ISG15 (peptide sequence: IGVHAFQQR, peptide start residue: 36) (UniProt P05161)” was tested, and the log2 fold change was -0.271. “CFH (peptide sequence: TGESVEFVCKR, peptide start residue: 1193) (UniProt P08603)” was tested, and the log2 fold change was 0.0192. Target “UniProt P08913 (peptide sequence: GKARASQVK, peptide start residue: 334)” has a log2 fold change of -0.0754. Target “APRT (peptide sequence: ADSELQLVEQR, peptide start residue: 2) (UniProt P07741)” has a log2 fold change of 0.0665. “DBT (peptide sequence: QTGAILPPSPK, peptide start residue: 212) (UniProt P11182)” showed a log2 fold change of -0.622. For “UniProt P04054 (peptide sequence: NAAICFSK, peptide start residue: 123)”, the log2 fold change was -0.0775. “PABPC1 (peptide sequence: AVDEMNGKELNGK, peptide start residue: 247) (UniProt P11940)” gave a log2 fold change of 0.103. “UniProt P0C7P4 (peptide sequence: DPQHDLDR, peptide start residue: 197)” showed a log2 fold change of -0.0411. With “GYPA (peptide sequence: SYISSQTNDTHKR, peptide start residue: 38) (UniProt P02724)” the log2 fold change was -0.356. Work on “CYC1 (peptide sequence: GLLSSLDHTSIR, peptide start residue: 100) (UniProt P08574)” yielded a log2 fold change of 0.00144. “SLC25A5 (peptide sequence: GIIDCVVR, peptide start residue: 53) (UniProt P05141)” showed a log2 fold change of 0.0144. “CENPB (peptide sequence: HGVVSCSGVAR, peptide start residue: 130) (UniProt P07199)” gave a log2 fold change of 0.165. For “ITGB1 (peptide sequence: WDTGENPIYK, peptide start residue: 775) (UniProt P05556)”, the log2 fold change was 0.0811. “HMGB1 (peptide sequence: PPSAFFLFCSEYRPK, peptide start residue: 98) (UniProt P09429)” was tested, and the log2 fold change was -0.272. “PEPD (peptide sequence: AFTPFSGPK, peptide start residue: 485) (UniProt P12955)” was tested, and the log2 fold change was 0.0435. Target “MTHFD1 (peptide sequence: KVVGDVAYDEAK, peptide start residue: 251) (UniProt P11586)” has a log2 fold change of 0.154. Work on “UMPS (peptide sequence: EQGGKDKLQAHGIR, peptide start residue: 156) (UniProt P11172)” yielded a log2 fold change of -0.281. “SMIM13 (peptide sequence: APADEGHRPLT, peptide start residue: 81) (UniProt P0DJ93)” gave a log2 fold change of 0.498. “SKIL (peptide sequence: LDASISNNSTSK, peptide start residue: 476) (UniProt P12757)” showed a log2 fold change of -0.348. Target “CCDC175 (peptide sequence: KHARWTAK, peptide start residue: 465) (UniProt P0C221)” has a log2 fold change of -0.242. “PLEK (peptide sequence: ELNLEKDKK, peptide start residue: 142) (UniProt P08567)” gave a log2 fold change of 0.434. “MT2A (peptide sequence: GASDKCSCCA, peptide start residue: 52) (UniProt P02795)” showed a log2 fold change of 0.165. For “MTHFD2 (peptide sequence: EGAAVIDVGINRVHDPVTAKPK, peptide start residue: 267) (UniProt P13995)”, the log2 fold change was 0.736. “POLR1D (peptide sequence: GTLPAVEPFQR, peptide start residue: 88) (UniProt P0DPB6)” was tested, and the log2 fold change was -0.129.
